According to article PMC4031048:
Construct, isoform or probe ends are uncertain for at least one entry. At least one verdict rests on a figure or table, not on a statement of the authors.

Chains of the proteins cited; added tags and fusions are not shown. Lines headed by an entry give the natural chain unless they say otherwise; changes in a name come on top.
UniProt Q62231: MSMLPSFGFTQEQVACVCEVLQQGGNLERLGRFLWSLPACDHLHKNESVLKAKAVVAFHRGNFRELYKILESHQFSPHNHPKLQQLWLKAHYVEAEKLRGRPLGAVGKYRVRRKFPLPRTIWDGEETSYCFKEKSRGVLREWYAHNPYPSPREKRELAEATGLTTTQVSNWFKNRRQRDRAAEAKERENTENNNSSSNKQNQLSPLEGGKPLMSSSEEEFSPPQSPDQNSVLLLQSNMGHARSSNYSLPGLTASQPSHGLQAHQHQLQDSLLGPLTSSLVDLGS

Molecular target: Six1 (Mus musculus) (UniProt Q62231)
Experiment: EMSA
Conditions: labeled probe; EMSA as previously described (ref 38); pH and temperature not given; protein translated in vitro; residues 1-284

“TGGGGGGGCTCAGGTTTCTGTGGCGT (double strand) [Myogenin MEF3]”: binds.
